Measurements published in the supplement of paper PMC12067093, “Discovery and optimisation of a covalent ligand for TRIM25 and its application to targeted protein ubiquitination” (Chemical Science, 2025).
This is one part of the list.

Sequences of proteins named here, by UniProt entry; tags and fusion partners are left off. A change or cut given only in a name is not applied to a line headed by its entry.
UniProt P43034: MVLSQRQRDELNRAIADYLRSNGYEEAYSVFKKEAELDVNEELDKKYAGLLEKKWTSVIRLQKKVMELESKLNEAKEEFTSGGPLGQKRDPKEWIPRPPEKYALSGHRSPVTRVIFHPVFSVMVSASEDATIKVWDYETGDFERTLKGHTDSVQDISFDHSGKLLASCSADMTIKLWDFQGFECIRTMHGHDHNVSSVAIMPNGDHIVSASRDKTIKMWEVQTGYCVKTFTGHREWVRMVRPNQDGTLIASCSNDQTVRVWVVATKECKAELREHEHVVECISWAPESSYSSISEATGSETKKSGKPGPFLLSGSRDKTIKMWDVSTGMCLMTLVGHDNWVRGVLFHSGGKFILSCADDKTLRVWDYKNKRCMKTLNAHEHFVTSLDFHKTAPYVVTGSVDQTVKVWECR
UniProt Q9ULE6: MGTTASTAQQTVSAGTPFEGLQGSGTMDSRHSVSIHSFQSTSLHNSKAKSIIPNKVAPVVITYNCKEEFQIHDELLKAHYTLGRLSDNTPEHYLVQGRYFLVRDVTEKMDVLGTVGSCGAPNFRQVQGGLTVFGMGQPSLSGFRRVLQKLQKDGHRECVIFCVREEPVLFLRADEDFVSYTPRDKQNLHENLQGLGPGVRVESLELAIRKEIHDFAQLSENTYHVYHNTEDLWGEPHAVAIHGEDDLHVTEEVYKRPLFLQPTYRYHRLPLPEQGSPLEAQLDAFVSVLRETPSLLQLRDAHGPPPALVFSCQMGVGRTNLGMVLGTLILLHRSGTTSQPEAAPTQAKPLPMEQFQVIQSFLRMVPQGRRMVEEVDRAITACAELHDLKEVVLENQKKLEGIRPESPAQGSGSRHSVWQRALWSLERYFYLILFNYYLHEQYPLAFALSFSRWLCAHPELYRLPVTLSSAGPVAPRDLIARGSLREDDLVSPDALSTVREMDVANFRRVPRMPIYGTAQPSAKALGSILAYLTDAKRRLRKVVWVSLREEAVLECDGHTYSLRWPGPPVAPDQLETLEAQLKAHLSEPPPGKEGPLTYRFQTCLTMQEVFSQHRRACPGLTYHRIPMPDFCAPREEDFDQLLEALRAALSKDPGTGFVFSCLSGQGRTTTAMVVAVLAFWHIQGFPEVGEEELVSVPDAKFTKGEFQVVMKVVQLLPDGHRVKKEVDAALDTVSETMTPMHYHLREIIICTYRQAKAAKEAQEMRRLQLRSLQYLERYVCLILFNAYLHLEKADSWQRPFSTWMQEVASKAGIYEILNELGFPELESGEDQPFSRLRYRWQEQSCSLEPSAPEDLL
UniProt Q96FW1, whole entry, looked up: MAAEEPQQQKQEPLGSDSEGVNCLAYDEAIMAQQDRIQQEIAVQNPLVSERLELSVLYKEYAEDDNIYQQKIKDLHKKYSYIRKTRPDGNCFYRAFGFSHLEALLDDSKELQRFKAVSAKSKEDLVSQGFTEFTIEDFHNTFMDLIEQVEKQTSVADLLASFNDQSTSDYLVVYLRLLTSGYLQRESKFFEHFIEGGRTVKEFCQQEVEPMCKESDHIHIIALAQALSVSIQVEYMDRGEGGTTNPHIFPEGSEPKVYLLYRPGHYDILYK
UniProt Q504Q3: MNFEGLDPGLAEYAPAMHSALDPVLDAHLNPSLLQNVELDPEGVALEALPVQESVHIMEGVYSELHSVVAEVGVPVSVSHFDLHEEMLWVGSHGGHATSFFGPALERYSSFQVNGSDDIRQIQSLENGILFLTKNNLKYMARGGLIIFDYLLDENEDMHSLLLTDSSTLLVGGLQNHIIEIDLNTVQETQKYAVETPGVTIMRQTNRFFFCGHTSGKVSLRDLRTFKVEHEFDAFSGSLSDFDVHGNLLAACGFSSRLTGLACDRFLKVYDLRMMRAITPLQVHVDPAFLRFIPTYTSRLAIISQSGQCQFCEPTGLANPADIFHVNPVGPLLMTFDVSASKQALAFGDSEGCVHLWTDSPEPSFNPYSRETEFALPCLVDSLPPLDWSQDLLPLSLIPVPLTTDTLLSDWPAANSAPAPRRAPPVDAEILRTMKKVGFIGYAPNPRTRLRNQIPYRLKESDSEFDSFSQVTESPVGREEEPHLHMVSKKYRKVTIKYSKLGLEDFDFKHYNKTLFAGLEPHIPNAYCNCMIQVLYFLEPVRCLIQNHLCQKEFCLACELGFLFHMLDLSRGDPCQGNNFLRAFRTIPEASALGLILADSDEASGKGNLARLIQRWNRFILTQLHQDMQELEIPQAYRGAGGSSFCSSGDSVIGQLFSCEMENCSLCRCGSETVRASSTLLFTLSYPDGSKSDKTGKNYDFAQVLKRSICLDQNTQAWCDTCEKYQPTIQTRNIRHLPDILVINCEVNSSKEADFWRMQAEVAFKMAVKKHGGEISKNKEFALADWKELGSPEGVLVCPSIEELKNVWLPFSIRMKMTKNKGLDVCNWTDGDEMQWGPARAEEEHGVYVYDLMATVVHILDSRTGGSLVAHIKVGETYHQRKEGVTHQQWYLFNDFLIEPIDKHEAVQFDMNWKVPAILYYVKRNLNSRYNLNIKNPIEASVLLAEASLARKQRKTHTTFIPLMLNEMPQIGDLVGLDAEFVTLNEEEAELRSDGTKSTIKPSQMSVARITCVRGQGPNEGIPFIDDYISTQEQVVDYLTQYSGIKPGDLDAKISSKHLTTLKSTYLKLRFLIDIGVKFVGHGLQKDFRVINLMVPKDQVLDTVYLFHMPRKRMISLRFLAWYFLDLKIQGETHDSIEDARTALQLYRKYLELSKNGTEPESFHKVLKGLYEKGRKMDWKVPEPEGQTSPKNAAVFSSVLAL
UniProt Q8N573: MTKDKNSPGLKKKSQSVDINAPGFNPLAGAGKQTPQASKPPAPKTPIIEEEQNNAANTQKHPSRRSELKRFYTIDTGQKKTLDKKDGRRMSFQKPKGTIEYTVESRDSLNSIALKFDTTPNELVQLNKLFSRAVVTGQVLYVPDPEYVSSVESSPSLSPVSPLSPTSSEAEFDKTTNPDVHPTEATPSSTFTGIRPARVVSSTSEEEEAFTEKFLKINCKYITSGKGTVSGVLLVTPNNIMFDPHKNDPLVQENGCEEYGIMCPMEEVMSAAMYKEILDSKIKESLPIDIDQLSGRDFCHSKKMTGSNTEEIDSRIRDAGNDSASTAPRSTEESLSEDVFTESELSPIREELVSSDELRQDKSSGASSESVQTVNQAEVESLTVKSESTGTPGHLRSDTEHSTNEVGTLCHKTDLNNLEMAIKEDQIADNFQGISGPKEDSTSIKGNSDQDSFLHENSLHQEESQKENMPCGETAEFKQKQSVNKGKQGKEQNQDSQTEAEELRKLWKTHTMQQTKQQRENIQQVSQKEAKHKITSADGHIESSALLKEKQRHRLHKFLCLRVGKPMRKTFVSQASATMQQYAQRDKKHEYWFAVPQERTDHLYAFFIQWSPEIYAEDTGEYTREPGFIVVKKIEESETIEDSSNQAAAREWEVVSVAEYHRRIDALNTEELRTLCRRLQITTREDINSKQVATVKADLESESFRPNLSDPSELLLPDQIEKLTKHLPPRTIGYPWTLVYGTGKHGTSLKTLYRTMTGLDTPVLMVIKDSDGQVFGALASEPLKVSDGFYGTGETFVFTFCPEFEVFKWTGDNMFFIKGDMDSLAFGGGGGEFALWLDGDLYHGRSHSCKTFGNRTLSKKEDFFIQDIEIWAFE
UniProt Q99571: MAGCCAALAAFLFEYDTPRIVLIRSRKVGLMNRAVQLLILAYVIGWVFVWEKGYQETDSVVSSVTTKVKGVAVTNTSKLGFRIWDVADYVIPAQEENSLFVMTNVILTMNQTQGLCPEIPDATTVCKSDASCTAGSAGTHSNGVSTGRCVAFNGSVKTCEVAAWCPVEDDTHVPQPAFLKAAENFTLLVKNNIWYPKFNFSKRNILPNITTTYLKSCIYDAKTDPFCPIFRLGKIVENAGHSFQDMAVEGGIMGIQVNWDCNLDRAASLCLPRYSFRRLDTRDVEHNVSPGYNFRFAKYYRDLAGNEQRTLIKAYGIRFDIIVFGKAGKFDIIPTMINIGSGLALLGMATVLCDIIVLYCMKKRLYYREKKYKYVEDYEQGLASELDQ
UniProt Q32P28: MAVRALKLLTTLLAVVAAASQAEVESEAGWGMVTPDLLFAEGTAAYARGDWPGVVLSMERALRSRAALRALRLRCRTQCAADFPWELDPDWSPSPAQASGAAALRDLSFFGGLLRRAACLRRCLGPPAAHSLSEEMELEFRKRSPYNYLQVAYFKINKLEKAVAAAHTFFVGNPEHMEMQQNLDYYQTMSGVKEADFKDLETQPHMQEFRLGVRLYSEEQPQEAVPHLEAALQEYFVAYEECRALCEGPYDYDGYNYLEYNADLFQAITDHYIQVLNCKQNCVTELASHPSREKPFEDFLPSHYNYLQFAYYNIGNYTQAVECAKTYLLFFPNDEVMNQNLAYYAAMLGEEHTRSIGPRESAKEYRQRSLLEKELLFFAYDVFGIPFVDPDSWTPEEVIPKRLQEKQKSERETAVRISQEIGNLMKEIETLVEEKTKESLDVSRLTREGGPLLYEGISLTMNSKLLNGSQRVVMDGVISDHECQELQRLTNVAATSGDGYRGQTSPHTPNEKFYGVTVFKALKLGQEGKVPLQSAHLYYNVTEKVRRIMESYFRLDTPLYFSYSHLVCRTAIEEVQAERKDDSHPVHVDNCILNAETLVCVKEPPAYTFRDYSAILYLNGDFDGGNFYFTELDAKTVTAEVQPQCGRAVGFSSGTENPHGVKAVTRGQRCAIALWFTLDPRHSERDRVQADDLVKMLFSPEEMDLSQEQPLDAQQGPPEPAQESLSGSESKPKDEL
UniProt Q460N5, whole entry, looked up: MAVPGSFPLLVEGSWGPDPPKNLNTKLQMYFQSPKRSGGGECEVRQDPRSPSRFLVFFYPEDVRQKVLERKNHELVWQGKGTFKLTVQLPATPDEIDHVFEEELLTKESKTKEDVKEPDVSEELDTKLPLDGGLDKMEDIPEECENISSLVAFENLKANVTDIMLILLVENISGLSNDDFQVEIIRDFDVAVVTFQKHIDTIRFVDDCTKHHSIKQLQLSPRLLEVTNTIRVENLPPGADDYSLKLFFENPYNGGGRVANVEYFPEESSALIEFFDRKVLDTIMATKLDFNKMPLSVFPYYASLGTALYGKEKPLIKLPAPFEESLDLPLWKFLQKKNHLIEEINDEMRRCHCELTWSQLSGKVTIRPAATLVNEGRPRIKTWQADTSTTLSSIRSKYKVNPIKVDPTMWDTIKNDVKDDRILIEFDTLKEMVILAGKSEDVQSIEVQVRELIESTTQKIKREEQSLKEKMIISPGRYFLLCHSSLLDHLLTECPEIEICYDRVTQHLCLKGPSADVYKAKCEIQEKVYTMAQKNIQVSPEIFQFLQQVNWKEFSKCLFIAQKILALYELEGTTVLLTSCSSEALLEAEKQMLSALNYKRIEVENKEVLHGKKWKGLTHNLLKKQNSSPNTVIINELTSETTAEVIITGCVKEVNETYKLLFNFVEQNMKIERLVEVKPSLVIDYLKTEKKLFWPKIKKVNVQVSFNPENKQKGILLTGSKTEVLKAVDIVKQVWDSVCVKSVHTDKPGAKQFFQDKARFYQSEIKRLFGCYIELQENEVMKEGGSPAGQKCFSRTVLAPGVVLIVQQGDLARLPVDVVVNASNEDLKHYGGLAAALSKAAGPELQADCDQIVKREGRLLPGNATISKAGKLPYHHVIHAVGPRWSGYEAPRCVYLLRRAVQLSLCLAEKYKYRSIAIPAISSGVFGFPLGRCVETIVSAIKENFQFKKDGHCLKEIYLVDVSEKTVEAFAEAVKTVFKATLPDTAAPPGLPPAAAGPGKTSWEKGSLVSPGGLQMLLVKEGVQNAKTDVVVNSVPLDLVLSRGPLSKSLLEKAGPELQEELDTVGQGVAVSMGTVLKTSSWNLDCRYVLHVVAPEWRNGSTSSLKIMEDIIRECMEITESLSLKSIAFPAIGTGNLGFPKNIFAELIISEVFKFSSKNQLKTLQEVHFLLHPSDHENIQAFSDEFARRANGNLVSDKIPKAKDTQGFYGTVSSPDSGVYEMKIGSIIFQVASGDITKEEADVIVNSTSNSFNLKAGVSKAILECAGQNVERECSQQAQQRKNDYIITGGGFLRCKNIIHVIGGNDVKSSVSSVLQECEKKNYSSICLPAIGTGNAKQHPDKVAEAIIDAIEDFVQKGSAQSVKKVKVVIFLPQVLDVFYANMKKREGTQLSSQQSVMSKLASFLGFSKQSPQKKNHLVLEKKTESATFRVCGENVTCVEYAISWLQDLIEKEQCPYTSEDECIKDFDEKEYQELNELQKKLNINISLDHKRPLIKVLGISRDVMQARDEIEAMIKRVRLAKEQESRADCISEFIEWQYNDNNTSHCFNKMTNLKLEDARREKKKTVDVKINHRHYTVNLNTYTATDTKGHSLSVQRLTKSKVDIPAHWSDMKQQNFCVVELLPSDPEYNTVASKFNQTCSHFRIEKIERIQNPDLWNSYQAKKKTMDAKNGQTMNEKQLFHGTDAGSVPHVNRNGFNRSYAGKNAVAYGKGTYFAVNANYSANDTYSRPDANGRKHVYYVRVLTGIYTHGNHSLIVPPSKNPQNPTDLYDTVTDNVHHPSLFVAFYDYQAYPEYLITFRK

compound: CC1Cc2ccccc2N1C(=O)C1CCCN(C1)C(=O)CCl (mixture of isomers) [TRIM25 ligand 11 (diastereomer mixture)]; assay: probe-labelled cysteine peptide fold change vs DMSO (competition) (log2 fold change); higher = less target engagement (more negative = stronger competition); conditions: 50 µM; THP-1; incubation time: 4 h
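Note: competitive chemoproteomic profiling in live THP-1 cells with an iodoacetamide desthiobiotin (IA-DTB) probe, comparing probe-labelled peptide intensities in compound-treated cells against DMSO-treated controls.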

| Target | probe-labelled cysteine peptide fold change |
| --- | --- |
| PAFAH1B1_P43034_168_LLASCSADMTIK (UniProt P43034) | -0.000688 |
| OSGEP_Q9NPF4_160_IFGETIDIAVGNCLDR (UniProt Q9NPF4) | -0.0314 |
| PALD1_Q9ULE6_382_AITACAELHDLK (UniProt Q9ULE6) | 0.0917 |
| PAICS_P22234_91_CGETAFIAPQCEMIPIEWVCR (UniProt P22234) | 0.222 |
| OSBPL5_Q9H0X9_459_CCWFHPQTDSR (UniProt Q9H0X9) | 0.0744 |
| PA2G4_Q9UQ80_87_KGIAFPTSISVNNCVCHFSPLK (UniProt Q9UQ80) | -0.396 |
| ORC4_O43929_152_TSSCPVIFILDEFDLFAHHK (UniProt O43929) | 0.0467 |
| PAFAH1B1_P43034_184_LWDFQGFECIR (UniProt P43034) | -0.0871 |
| OSBPL1A_Q9BXW6_710+711_GTITLELLEHNEAYTWTNPTCCVHNIIVGK (UniProt Q9BXW6) | 0.027 |
| OPLAH_O14841_466_VANEAMCRPIR (UniProt O14841) | 0.0439 |
| OTUB1_Q96FW1_23_QEPLGSDSEGVNCLAYDEAIMAQQDR (UniProt Q96FW1) | -0.462 |
| PAF1_Q8N7H5_218_MWINPCAQVIFDSDPAPK (UniProt Q8N7H5) | -0.0459 |
| PAIP1_Q9H074_318_ELLNALFSNPMDDNLICAVK (UniProt Q9H074) | -0.0378 |
| PARN_O95453_543_LNPQCIPYTLQNHYYR (UniProt O95453) | -0.0659 |
| PAN2_Q504Q3_550_CLIQNHLCQK (UniProt Q504Q3) | 0.256 |
| OTUB1_Q96FW1_91_TRPDGNCFYR (UniProt Q96FW1) | -0.0617 |
| PARP12_Q9H0J9_276_DSSGSVSPNTLSQEEGDQICLYHIR (UniProt Q9H0J9) | 0.172 |
| PANK4_Q9NVE7_513_EHCLNEFNFPDPYSK (UniProt Q9NVE7) | -0.129 |
| OXR1_Q8N573_471_ENMPCGETAEFK (UniProt Q8N573) | -0.146 |

| Target | probe-labelled cysteine peptide fold change |
| --- | --- |
| PADI2_Q9Y2J8_629_GLLEPLGLECTFIDDISAYHK (UniProt Q9Y2J8) | 0.0618 |
| PABPC1_P11940_128_ALYDTFSAFGNILSCK (UniProt P11940) | -0.0248 |
| OGT_O15294_44_HCMQLWR (UniProt O15294) | 0.114 |
| OSBPL3_Q9H4L5_114_CIDLDTEEHIYHLK (UniProt Q9H4L5) | 0.0383 |
| P4HTM_Q9NXG6_156_PLLFEIPGFLTDEECR (UniProt Q9NXG6) | 0.15 |
| P4HB_P07237_400_NVFVEFYAPWCGHCK (UniProt P07237) | -0.184 |
| PAPOLA_P51003_118_GADIDALCVAPR (UniProt P51003) | 0.0015 |
| OSTC_Q9NRP0_14_VPFLVLECPNLK (UniProt Q9NRP0) | 0.00142 |
| OXR1_Q8N573-2_50_EPAQGDLGCGSPPHRPPAPSSPEGPDTGQK (UniProt Q8N573) | -0.185 |
| PARP1_P09874_256_VCSTNDLK (UniProt P09874) | 0.0164 |
| PAPSS2_O95340_497_STIVAIFPSPMLYAGPTEVQWHCR (UniProt O95340) | 0.128 |
| P2RX4_Q99571_227_TDPFCPIFR (UniProt Q99571) | 0.0728 |
| PALD1_Q9ULE6_555_EEAVLECDGHTYSLR (UniProt Q9ULE6) | 0.167 |
| PAN2_Q504Q3_798_ELGSPEGVLVCPSIEELK (UniProt Q504Q3) | -0.174 |
| P3H1_Q32P28_483_VVMDGVISDHECQELQR (UniProt Q32P28) | 0.0914 |
| PAK4_O96013_462_LSDFGFCAQVSK (UniProt O96013) | 0.0187 |
| PARP14_Q460N5_1274_ECSQQAQQR (UniProt Q460N5) | -0.0412 |
| OSBPL5_Q9H0X9_253_LGTCKPGR (UniProt Q9H0X9) | -0.239 |

Six entries from above, bar-delimited.
Target | probe-labelled cysteine peptide fold change
PALD1_Q9ULE6_555_EEAVLECDGHTYSLR (UniProt Q9ULE6) | 0.167
PAN2_Q504Q3_798_ELGSPEGVLVCPSIEELK (UniProt Q504Q3) | -0.174
P3H1_Q32P28_483_VVMDGVISDHECQELQR (UniProt Q32P28) | 0.0914
PAK4_O96013_462_LSDFGFCAQVSK (UniProt O96013) | 0.0187
PARP14_Q460N5_1274_ECSQQAQQR (UniProt Q460N5) | -0.0412
OSBPL5_Q9H0X9_253_LGTCKPGR (UniProt Q9H0X9) | -0.239
